Results reported in the supplement of paper PMC10849652.
Some of the results follow.

The chains behind the UniProt entries cited, without tags or fusion partners. Where a name states a change or a piece, a line headed by the entry shows the natural chain unless it says otherwise.
UniProt Q7Z4R8: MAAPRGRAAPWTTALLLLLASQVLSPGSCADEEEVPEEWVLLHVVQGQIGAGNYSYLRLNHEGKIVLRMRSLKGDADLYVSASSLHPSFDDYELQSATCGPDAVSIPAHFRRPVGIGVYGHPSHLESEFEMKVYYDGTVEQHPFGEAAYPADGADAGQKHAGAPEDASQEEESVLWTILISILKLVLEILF
UniProt Q96MH7: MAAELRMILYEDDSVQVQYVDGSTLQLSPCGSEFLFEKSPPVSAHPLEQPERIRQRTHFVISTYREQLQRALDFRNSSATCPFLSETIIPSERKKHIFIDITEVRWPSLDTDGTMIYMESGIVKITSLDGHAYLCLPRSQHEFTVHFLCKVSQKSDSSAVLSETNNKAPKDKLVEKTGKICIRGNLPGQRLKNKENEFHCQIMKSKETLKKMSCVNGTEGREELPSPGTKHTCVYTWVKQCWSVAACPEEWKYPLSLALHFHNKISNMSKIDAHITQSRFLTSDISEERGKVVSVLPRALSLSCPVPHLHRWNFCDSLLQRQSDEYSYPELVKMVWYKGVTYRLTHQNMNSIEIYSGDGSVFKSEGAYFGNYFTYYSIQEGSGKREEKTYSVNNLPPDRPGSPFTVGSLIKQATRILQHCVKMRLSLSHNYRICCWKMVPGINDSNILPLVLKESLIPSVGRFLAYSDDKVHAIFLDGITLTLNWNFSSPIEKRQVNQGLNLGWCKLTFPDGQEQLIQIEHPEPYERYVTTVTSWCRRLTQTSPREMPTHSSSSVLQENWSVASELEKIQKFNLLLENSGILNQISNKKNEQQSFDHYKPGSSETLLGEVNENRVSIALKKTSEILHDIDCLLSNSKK
UniProt Q9BTV7: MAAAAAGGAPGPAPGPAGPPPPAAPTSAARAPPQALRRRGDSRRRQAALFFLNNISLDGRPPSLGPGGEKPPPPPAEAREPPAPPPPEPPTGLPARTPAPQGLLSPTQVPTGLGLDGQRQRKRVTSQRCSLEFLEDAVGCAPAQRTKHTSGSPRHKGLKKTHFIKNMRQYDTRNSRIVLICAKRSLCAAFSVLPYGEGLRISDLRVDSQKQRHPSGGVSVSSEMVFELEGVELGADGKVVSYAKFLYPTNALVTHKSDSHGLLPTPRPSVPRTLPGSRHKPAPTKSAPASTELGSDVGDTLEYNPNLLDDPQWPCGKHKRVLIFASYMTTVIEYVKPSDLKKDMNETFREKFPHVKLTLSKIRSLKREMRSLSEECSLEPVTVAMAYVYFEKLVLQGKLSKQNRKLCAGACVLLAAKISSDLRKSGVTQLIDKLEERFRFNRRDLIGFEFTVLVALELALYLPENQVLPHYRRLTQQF
UniProt Q96LW7: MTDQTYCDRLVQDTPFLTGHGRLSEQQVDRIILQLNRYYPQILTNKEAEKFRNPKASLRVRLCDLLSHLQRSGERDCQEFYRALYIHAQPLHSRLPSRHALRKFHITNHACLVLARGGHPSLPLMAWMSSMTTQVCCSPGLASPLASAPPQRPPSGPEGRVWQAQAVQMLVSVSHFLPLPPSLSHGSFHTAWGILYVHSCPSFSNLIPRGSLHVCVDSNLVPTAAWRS
UniProt Q01518, whole entry, looked up: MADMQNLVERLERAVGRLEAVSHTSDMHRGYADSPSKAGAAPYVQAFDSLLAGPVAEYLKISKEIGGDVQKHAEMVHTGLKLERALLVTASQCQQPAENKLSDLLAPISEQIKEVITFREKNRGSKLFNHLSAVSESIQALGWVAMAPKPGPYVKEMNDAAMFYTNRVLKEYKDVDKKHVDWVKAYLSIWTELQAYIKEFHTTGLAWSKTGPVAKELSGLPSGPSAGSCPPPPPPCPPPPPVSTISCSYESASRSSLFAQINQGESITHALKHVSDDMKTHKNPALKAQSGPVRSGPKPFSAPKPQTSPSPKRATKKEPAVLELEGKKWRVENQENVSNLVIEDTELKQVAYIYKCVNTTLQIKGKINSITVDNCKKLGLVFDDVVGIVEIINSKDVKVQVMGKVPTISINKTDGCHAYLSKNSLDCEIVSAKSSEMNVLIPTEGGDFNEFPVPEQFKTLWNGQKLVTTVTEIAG
UniProt Q6PH81: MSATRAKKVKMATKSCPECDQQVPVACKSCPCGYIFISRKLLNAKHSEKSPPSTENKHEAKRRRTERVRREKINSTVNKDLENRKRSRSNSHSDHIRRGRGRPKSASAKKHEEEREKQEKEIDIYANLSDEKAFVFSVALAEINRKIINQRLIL
UniProt Q96LT7: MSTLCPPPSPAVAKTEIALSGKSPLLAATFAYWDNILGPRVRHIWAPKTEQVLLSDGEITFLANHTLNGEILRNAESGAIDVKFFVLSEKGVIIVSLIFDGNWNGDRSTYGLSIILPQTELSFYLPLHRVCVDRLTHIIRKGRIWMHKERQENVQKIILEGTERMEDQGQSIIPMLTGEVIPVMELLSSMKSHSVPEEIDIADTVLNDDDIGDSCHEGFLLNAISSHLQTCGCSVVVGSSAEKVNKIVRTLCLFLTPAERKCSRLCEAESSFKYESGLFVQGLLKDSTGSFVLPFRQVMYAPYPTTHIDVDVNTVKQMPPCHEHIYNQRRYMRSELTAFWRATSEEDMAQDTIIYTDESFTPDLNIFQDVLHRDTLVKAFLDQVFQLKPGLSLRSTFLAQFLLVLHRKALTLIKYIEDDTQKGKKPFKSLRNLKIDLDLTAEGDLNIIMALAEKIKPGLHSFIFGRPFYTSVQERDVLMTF
UniProt Q9Y426: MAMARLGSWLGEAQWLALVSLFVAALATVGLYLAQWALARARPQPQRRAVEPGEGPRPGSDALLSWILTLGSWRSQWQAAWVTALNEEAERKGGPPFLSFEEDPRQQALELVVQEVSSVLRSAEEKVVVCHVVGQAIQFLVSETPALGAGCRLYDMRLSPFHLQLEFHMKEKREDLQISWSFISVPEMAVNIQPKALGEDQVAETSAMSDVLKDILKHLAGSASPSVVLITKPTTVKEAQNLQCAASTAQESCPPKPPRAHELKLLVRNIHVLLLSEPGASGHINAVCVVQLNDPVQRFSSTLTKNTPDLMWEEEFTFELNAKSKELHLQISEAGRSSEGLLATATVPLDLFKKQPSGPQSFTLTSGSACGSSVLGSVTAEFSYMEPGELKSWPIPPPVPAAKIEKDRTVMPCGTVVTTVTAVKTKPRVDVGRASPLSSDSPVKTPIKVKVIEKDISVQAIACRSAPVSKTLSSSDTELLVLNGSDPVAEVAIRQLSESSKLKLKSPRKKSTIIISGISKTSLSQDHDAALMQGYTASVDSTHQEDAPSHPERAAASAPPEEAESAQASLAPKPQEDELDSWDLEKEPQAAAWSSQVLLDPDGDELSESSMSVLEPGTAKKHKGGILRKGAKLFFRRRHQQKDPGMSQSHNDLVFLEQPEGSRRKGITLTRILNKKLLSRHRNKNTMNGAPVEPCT
UniProt Q7Z7L8: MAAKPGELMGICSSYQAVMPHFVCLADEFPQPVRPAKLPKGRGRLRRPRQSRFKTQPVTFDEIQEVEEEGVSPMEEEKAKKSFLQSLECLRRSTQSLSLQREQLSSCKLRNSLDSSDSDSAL
UniProt Q96HA4: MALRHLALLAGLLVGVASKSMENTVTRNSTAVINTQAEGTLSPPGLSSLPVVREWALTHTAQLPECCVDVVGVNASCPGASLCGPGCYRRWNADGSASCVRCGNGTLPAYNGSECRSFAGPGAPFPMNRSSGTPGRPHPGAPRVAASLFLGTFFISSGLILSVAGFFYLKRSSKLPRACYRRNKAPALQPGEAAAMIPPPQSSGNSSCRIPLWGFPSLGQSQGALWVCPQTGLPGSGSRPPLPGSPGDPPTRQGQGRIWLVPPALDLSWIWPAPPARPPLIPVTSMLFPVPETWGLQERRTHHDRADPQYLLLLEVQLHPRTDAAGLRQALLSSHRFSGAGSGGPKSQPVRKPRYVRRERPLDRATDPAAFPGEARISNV
UniProt Q96B23: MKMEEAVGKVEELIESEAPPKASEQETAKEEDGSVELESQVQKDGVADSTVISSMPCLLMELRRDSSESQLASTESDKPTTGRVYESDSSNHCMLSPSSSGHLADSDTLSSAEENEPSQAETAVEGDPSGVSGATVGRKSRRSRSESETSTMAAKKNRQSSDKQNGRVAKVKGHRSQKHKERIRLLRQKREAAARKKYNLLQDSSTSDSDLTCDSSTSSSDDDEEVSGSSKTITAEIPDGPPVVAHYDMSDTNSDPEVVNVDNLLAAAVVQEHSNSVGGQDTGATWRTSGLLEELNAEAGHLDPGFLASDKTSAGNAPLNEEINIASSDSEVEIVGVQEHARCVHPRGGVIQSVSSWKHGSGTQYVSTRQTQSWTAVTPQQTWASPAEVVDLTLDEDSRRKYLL
UniProt Q9BX69: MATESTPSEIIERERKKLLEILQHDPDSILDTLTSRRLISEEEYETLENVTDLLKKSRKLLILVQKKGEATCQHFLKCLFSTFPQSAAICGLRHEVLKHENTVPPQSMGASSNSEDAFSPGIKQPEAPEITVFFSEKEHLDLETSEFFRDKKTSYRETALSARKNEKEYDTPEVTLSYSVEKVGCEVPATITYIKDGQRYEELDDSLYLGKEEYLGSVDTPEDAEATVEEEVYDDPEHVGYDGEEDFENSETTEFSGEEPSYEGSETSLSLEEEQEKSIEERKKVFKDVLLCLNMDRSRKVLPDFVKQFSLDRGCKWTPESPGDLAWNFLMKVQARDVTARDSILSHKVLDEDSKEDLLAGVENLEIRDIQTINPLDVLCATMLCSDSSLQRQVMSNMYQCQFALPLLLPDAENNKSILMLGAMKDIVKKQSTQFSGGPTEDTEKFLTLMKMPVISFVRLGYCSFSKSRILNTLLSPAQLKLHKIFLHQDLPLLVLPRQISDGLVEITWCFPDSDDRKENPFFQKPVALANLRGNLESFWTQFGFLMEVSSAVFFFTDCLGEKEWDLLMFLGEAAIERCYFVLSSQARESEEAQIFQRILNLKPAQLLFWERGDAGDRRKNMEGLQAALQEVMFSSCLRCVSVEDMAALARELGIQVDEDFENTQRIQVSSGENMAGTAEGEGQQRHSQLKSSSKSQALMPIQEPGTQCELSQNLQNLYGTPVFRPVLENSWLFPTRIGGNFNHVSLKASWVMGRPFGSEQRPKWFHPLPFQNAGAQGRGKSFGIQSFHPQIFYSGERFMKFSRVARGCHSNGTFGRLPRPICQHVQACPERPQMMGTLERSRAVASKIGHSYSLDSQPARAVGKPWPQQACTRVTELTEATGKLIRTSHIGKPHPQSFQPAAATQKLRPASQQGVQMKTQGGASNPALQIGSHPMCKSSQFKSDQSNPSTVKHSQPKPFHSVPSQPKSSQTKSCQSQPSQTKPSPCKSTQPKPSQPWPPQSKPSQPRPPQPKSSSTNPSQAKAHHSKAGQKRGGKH
UniProt Q3KRA6: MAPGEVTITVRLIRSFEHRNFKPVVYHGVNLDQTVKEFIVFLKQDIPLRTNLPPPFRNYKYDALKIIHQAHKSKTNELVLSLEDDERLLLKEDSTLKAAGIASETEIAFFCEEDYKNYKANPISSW
UniProt Q6ZRI6: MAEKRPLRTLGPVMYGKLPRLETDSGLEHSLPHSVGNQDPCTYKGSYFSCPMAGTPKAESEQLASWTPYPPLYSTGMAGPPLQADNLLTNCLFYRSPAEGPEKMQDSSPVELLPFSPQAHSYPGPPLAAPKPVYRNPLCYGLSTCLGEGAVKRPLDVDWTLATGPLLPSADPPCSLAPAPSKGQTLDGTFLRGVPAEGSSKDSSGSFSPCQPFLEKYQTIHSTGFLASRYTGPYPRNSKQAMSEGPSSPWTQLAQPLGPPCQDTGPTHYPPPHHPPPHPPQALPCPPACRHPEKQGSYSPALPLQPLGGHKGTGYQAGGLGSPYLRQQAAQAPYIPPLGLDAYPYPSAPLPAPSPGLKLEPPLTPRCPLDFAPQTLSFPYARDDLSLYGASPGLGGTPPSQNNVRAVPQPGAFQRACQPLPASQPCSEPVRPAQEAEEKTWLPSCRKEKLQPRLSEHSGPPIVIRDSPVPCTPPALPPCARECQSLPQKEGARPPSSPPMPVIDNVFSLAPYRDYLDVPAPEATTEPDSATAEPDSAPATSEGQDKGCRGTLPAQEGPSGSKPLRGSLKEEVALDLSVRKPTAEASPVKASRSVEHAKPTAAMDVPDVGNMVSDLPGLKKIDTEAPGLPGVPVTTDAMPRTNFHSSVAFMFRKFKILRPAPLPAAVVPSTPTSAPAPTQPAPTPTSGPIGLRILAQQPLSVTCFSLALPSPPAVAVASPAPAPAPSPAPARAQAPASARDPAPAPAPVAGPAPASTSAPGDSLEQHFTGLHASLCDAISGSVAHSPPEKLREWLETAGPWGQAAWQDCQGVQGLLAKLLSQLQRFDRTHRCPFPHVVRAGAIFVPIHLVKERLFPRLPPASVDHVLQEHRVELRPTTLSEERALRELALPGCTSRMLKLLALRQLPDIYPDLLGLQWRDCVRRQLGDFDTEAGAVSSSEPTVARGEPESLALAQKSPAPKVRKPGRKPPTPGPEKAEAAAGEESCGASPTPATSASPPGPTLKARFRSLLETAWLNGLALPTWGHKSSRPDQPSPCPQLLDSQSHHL
UniProt P0DMB2: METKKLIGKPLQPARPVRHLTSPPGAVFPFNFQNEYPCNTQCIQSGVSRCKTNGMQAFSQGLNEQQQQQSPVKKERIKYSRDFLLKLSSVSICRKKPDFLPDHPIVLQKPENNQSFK

Experiments:
Assay in all cases: log2 fold change, soluble protein after heating vs DMSO (PISA); higher = thermal stabilisation; K562 lysate, 10 uM; active = over 0.2 and 3.5 SD of the protein, either way, in both replicates (recomputed)
[1] = compound: NCC(=O)Nc1ccc(-n2nc(C(F)(F)F)cc2-c2ccc3c(ccc4ccccc43)c2)cc1
How it was run: (§1)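 K562 pellets were dounce-homogenised in PBS pH 7.4 containing 1 mM MgCl2, and the crude extract, at 1 mg/mL protein, was exposed to 10 μM compound for 30 min. Aliquots were heated for 3 min across 48°C-58°C, pooled, brought to 0.5% NP-40 at 4°C and spun at 21,000xg for 90 min, with the supernatant taken as soluble protein. TMTpro 16plex LC-MS/MS with equalised channel sums quantified that protein. Values are log-two fold changes in thermal stability relative to solvent controls, taken from duplicates.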

[2] = compound: O=C1NC(=O)C(c2cnc3ccccn23)=C1c1cn2c3c(cc(F)cc13)CN(C(=O)N1CCCCC1)CC2
How it was run: as §1

entospletinib = compound: c1cn2cc(-c3ccc4cn[nH]c4c3)nc(Nc3ccc(N4CCOCC4)cc3)c2n1 [entospletinib]
How it was run: as §1

vorinostat = compound: O=C(CCCCCCC(=O)Nc1ccccc1)NO [vorinostat]
How it was run: as §1

silmitasertib = compound: O=C(O)c1ccc2c(c1)nc(Nc1cccc(Cl)c1)c1ccncc12 [silmitasertib]
How it was run: as §1

Target | log2 fold change [1] | log2 fold change [2] | log2 fold change (entospletinib) | log2 fold change (vorinostat) | log2 fold change (silmitasertib)
CAPN1 (UniProt E9PLX0) | inactive: 0.039 | inactive: -0.186 | inactive: -0.14 |  | 
CA1 (UniProt E5RIF9) |  |  | inactive: -0.458 |  | 
C6orf62 (UniProt Q9GZU0) | inactive: -0.097 | inactive: -0.197 |  |  | 
C6orf120 (UniProt Q7Z4R8) |  |  |  | inactive: 0.273 | inactive: -0.075
C5orf34 (UniProt Q96MH7) | inactive: 0.166 |  | inactive: 0.073 | inactive: -0.045 | inactive: 0.015
CABLES2 (UniProt Q9BTV7) | inactive: 0.059 | inactive: 0.182 | inactive: -0.01 |  | 
CAD (UniProt H7BZB3) | inactive: 0.113 |  | inactive: -0.008 | inactive: -0.54 | inactive: -0.006
CARD19 (UniProt Q96LW7) |  | inactive: -0.021 |  |  | 
CAND1 (UniProt F5H6I6) |  | inactive: 0.152 | inactive: -0.075 | inactive: 0.097 | inactive: -0.135
CAP1 isoform 2 (UniProt Q01518) |  | inactive: 0.054 |  | inactive: 0.214 | inactive: -0.012
CACNA1C isoform 2 (UniProt Q13936) |  |  |  | inactive: -0.082 | inactive: 0.028
C16orf87 (UniProt Q6PH81) | inactive: 0.015 | inactive: 0.091 | inactive: -0.034 |  | 
C5orf24 (UniProt Q7Z6I8) |  | inactive: -0.11 |  |  | 
C9orf72 (UniProt Q96LT7) |  | inactive: -0.015 | inactive: -0.129 | active: 0.919 | inactive: -0.045
C2CD2 (UniProt Q9Y426) |  | inactive: 0.044 | inactive: -0.079 | inactive: -0.162 | inactive: 0.063
C11orf96 (UniProt Q7Z7L8) |  | inactive: 0.036 |  | inactive: -0.074 | inactive: -0.052
C1orf159 isoform 4 (UniProt Q96HA4) |  |  | inactive: -0.355 |  | 
C18orf25 isoform 2 (UniProt Q96B23) | inactive: -0.014 |  | inactive: 0.038 | inactive: -0.034 | inactive: -0.067
CARD6 (UniProt Q9BX69) | inactive: -0.036 | inactive: 0.143 |  |  | 
CAP1 (UniProt Q5T0R8) |  |  |  | inactive: -0.352 | inactive: -0.294
BUD13 (UniProt Q9BRD0) |  | inactive: 0.036 | inactive: -0.046 | inactive: 0.136 | inactive: 0.054
C2orf76 (UniProt Q3KRA6) |  | inactive: 0 | inactive: 0.029 | inactive: 0.146 | inactive: -0.012
C15orf39 (UniProt Q6ZRI6) |  | inactive: -0.025 | inactive: -0.147 | active: -0.513 | inactive: 0.008
C8orf88 (UniProt P0DMB2) |  | inactive: 0.024 |  | active: -0.455 | inactive: 0.056

Record cards (already shown).
CA1 (UniProt E5RIF9) is entered as log2 fold change (entospletinib): inactive: -0.458
C5orf24 (UniProt Q7Z6I8) is entered as log2 fold change [2]: inactive: -0.11
